The values below come from doi:10.1101/2021.08.12.456108.

Sequences of proteins named here, by UniProt entry; tags and fusion partners are left off.
UniProt P98170: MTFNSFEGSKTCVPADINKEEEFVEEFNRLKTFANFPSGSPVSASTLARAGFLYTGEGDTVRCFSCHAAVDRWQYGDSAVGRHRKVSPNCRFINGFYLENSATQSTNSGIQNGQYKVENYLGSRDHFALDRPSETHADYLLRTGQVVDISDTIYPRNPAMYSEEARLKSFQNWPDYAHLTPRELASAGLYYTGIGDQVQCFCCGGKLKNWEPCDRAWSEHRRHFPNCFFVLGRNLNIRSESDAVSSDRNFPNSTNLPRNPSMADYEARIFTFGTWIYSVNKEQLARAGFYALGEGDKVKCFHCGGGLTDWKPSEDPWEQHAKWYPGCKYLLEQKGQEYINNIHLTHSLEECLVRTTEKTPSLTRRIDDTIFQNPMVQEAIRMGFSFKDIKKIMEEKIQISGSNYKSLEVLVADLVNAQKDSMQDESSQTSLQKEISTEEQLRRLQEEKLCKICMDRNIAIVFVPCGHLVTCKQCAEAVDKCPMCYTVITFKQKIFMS
UniProt Q93009: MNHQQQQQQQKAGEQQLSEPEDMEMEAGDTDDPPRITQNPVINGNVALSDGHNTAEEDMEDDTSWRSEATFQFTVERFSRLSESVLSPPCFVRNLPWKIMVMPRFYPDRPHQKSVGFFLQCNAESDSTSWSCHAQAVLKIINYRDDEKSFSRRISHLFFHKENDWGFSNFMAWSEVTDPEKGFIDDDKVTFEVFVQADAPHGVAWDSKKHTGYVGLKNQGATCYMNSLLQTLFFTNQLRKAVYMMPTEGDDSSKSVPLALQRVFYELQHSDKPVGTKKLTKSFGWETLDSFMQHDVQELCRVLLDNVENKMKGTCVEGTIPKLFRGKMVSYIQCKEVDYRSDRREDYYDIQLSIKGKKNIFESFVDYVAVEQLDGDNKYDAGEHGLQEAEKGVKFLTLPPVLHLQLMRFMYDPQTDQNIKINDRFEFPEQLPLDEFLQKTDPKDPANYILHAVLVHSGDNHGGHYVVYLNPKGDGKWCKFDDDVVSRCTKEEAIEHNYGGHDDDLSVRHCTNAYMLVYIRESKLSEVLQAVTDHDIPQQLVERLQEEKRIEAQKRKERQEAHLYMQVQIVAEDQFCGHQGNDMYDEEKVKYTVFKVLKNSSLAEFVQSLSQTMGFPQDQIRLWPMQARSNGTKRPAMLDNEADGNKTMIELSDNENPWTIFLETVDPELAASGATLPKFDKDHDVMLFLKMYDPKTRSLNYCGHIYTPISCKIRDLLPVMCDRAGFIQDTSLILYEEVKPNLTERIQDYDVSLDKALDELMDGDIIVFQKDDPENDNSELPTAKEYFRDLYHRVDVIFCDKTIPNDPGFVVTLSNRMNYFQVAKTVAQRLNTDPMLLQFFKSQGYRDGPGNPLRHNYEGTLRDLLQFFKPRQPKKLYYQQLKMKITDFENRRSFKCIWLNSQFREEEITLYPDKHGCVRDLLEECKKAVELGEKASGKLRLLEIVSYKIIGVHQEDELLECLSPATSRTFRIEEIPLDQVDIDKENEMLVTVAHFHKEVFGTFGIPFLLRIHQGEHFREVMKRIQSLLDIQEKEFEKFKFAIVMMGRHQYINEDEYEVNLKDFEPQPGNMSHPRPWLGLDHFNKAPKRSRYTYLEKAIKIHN

No constants are given. Whether binding was seen depends on the method and setting. In cells and extracts the contact can be indirect. These calls come from enrichment with a bait or labelling near it, and not all partners need be listed.

The target in one assay is GST-XIAP (UniProt P98170). The experiment in a line: affinity purification with mass spectrometry.
Another assay has as its target GST-USP7 (UniProt Q93009). The experiment in a line: affinity purification with mass spectrometry.

In the case of “endogenous USP7 of HEK cells (from UniProt Q93009 1-1102) (enzyme)”, the binding entry in the assay with GST-XIAP was “binds”.

Consider “endogenous XIAP (X-linked IAP) of HEK cells (from UniProt P98170 1-497)”, for which the binding entry with GST-USP7 is “binds”.
